PubChem BioAssay AID504764, Drosophila RNAi Screening Center | 2011

- Test: 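Genes whose knock-down alters Notch-dependent transcription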 (primary screen)
- Cell system: Drosophila Kc167 cells
- Reagents: long dsRNA against Drosophila genes
- Timing: about 5 days (4 days dsRNA, then 24 h after transfection)
- Challenge: transfection of constitutively active membrane-tethered Notch lacking the extracellular domain, read 24 h later
- Measured: 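Firefly luciferase from an E(spl)m3 reporter with active Notch, plus control-promoter and uninduced reporter wells for normalisation; unnormalised counts, duplicate wells a and b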
- Scale: induced reporter light, run 1, well a and induced reporter light, run 1, well b: higher = more light from the Notch target reporter with active Notch; control promoter light, run 1, well a and control promoter light, run 1, well b: higher = more light from the viral control promoter (cell number, transfection, viability); uninduced reporter light, run 1, well a: higher = more light from the Notch target reporter without active Notch
- Call rule: 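Hit if the duplicate-averaged log2 ratio of induced to control-promoter light gives a plate-wise z beyond ±2, or induced to uninduced beyond ±1.8; weak-control or discordant-duplicate wells dropped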
- Meaning of the calls: active = modifier hit (raised or lowered Notch signal); inactive = not a hit
The deposit covers about 22,000 reagents; this is a random part of those with a known target gene and a result. Of all reagents, 403 (1.9%) were called active. 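Unnormalised raw counts per well; ratio z-scores behind the hit calls and whether each hit raises or lowers signal are not deposited.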 The record does not give: the amount of reagent.

{"gene": "vrs (GeneID 41537)", "dsRNA": "DRSC15832", "induced reporter light, run 1, well a": 88880, "induced reporter light, run 1, well b": 1.08e5, "control promoter light, run 1, well a": 89840, "control promoter light, run 1, well b": 91465, "uninduced reporter light, run 1, well a": 6005, "outcome": "inactive"}
{"gene": "CG33013 (retired record) (GeneID 318830)", "dsRNA": "DRSC06286", "induced reporter light, run 1, well a": 1.01e5, "induced reporter light, run 1, well b": 1.11e5, "control promoter light, run 1, well a": 1.29e5, "control promoter light, run 1, well b": 1.29e5, "uninduced reporter light, run 1, well a": 8955, "outcome": "inactive"}
{"gene": "CG30148 (GeneID 37318)", "dsRNA": "DRSC06391", "induced reporter light, run 1, well a": 1.87e5, "induced reporter light, run 1, well b": 1.70e5, "control promoter light, run 1, well a": 3.04e5, "control promoter light, run 1, well b": 2.26e5, "uninduced reporter light, run 1, well a": 15132, "outcome": "inactive"}
{"gene": "Efhc1.1 (GeneID 32528)", "dsRNA": "DRSC20135", "induced reporter light, run 1, well a": 77050, "induced reporter light, run 1, well b": 67185, "control promoter light, run 1, well a": 83885, "control promoter light, run 1, well b": 80400, "uninduced reporter light, run 1, well a": 11982, "outcome": "inactive"}
{"gene": "CG13426 (GeneID 37312)", "dsRNA": "DRSC06388", "induced reporter light, run 1, well a": 1.68e5, "induced reporter light, run 1, well b": 1.33e5, "control promoter light, run 1, well a": 1.62e5, "control promoter light, run 1, well b": 1.95e5, "uninduced reporter light, run 1, well a": 10200, "outcome": "inactive"}
{"gene": "CG6067 (GeneID 31529)", "dsRNA": "DRSC18399", "induced reporter light, run 1, well a": 1.76e5, "induced reporter light, run 1, well b": 1.39e5, "control promoter light, run 1, well a": 3.20e5, "control promoter light, run 1, well b": 2.99e5, "uninduced reporter light, run 1, well a": 11015, "outcome": "inactive"}
{"gene": "Jheh1 (GeneID 251984)", "dsRNA": "DRSC06529", "induced reporter light, run 1, well a": 99710, "induced reporter light, run 1, well b": 98440, "control promoter light, run 1, well a": 1.31e5, "control promoter light, run 1, well b": 1.46e5, "uninduced reporter light, run 1, well a": 7995, "outcome": "inactive"}
{"gene": "CG5274 (GeneID 40257)", "dsRNA": "DRSC11774", "induced reporter light, run 1, well a": 1.19e5, "induced reporter light, run 1, well b": 1.43e5, "control promoter light, run 1, well a": 72335, "control promoter light, run 1, well b": 76590, "uninduced reporter light, run 1, well a": 12595, "outcome": "inactive"}
{"gene": "CG11269 (GeneID 37527)", "dsRNA": "DRSC04094", "induced reporter light, run 1, well a": 41495, "induced reporter light, run 1, well b": 37220, "control promoter light, run 1, well a": 36455, "control promoter light, run 1, well b": 32735, "uninduced reporter light, run 1, well a": 1765, "outcome": "inactive"}
{"gene": "CG11356 (GeneID 32178)", "dsRNA": "DRSC19401", "induced reporter light, run 1, well a": 1.13e5, "induced reporter light, run 1, well b": 1.16e5, "control promoter light, run 1, well a": 1.95e5, "control promoter light, run 1, well b": 1.24e5, "uninduced reporter light, run 1, well a": 8860, "outcome": "inactive"}
{"gene": "CG42402 (GeneID 7354470)", "dsRNA": "DRSC21116", "induced reporter light, run 1, well a": 71900, "induced reporter light, run 1, well b": 87995, "control promoter light, run 1, well a": 74335, "control promoter light, run 1, well b": 1.04e5, "uninduced reporter light, run 1, well a": 10120, "outcome": "inactive"}
{"gene": "CG9164 (GeneID 32467)", "dsRNA": "DRSC19087", "induced reporter light, run 1, well a": 54490, "induced reporter light, run 1, well b": 51445, "control promoter light, run 1, well a": 30450, "control promoter light, run 1, well b": 28100, "uninduced reporter light, run 1, well a": 7840, "outcome": "inactive"}
{"gene": "CG9164 (GeneID 32467)", "dsRNA": "DRSC20162", "induced reporter light, run 1, well a": 2.24e5, "induced reporter light, run 1, well b": 1.96e5, "control promoter light, run 1, well a": 2.57e5, "control promoter light, run 1, well b": 2.51e5, "uninduced reporter light, run 1, well a": 14180, "outcome": "inactive"}
{"gene": "CG13023 (GeneID 39894)", "dsRNA": "DRSC09454", "induced reporter light, run 1, well a": 2.15e5, "induced reporter light, run 1, well b": 1.89e5, "control promoter light, run 1, well a": 2.74e5, "control promoter light, run 1, well b": 2.26e5, "uninduced reporter light, run 1, well a": 16388, "outcome": "inactive"}
{"gene": "CG13023 (GeneID 39894)", "dsRNA": "DRSC09903", "induced reporter light, run 1, well a": 1.86e5, "induced reporter light, run 1, well b": 1.55e5, "control promoter light, run 1, well a": 2.09e5, "control promoter light, run 1, well b": 1.83e5, "uninduced reporter light, run 1, well a": 9190, "outcome": "inactive"}
{"gene": "Rpt4 (GeneID 31567)", "dsRNA": "DRSC18713", "induced reporter light, run 1, well a": 45945, "induced reporter light, run 1, well b": 48405, "control promoter light, run 1, well a": 52060, "control promoter light, run 1, well b": 58295, "uninduced reporter light, run 1, well a": 3420, "outcome": "active"}
{"gene": "Src42A (GeneID 35524)", "dsRNA": "DRSC04915", "induced reporter light, run 1, well a": 1.64e5, "induced reporter light, run 1, well b": 1.67e5, "control promoter light, run 1, well a": 1.40e5, "control promoter light, run 1, well b": 1.30e5, "uninduced reporter light, run 1, well a": 12895, "outcome": "inactive"}
{"gene": "Npc2h (GeneID 43649)", "dsRNA": "DRSC14297", "induced reporter light, run 1, well a": 1.31e5, "induced reporter light, run 1, well b": 1.09e5, "control promoter light, run 1, well a": 1.69e5, "control promoter light, run 1, well b": 1.74e5, "uninduced reporter light, run 1, well a": 10032, "outcome": "inactive"}

A stretch taken from the entries so far:
{"gene": "vrs (GeneID 41537)", "dsRNA": "DRSC15832", "induced reporter light, run 1, well a": 88880, "induced reporter light, run 1, well b": 1.08e5, "control promoter light, run 1, well a": 89840, "control promoter light, run 1, well b": 91465, "uninduced reporter light, run 1, well a": 6005, "outcome": "inactive"}
{"gene": "CG33013 (retired record) (GeneID 318830)", "dsRNA": "DRSC06286", "induced reporter light, run 1, well a": 1.01e5, "induced reporter light, run 1, well b": 1.11e5, "control promoter light, run 1, well a": 1.29e5, "control promoter light, run 1, well b": 1.29e5, "uninduced reporter light, run 1, well a": 8955, "outcome": "inactive"}
